PubChem BioAssay AID1224828 – NIAID | 2016
Purpose: 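Regulators linking TLR4 signalling to p65 nuclear translocation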 (primary screen). System: mouse RAW264.7 G9 macrophage reporter cells (GFP-p65, Tnf promoter-mCherry). Knock-down reagent: siRNA pool against mouse genes, 100 nM. Time to read-out: 2 days siRNA transfection, then 40 min LPS before fixation. Conditions: LPS (Salmonella minnesota R595) at 10 ng/ml. Measurement: 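Microscopy ratio of nuclear to perinuclear-ring GFP-p65 signal, scaled to the plate median; gene score is the average of two replicate robust z-scores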. Scale: p65 translocation robust z-score: higher = more nuclear NF-kappaB p65 after LPS than the plate median; nuclear/cytoplasmic p65 ratio: higher = more nuclear NF-kappaB p65. Hit rule: 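Active if robust z is above 3.3 (negative regulators) or below -1.56, the Tlr4 control median (positive regulators); activity score 50 or more; control wells not called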. Calls: active = hit (p65 shift raised or lowered); inactive = no clear change.
The whole screen tested about 17,000 reagents; shown is a part drawn at random. In the full data, 762 (4.5%) were called active. 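Active calls include both raised and lowered p65 entry, mostly lowered; wells with fewer than 50 cells lack a z-score.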 The raw values are shown without normalisation. No sequences are given here.

Target gene | p65 translocation robust z-score | nuclear/cytoplasmic p65 ratio, rep 1 | nuclear/cytoplasmic p65 ratio, rep 2 | low cell count flag | Outcome
Gm9732 (GeneID 108168154) | – | 1.34 | 1.31 | fewer than 50 cells per well; well left out of scoring | inactive
Tnfrsf23 (GeneID 79201) | 0.1 | 1.38 | 1.11 | enough cells to score | inactive
Atp8b5 (GeneID 320571) | – | 1.3 | 1.68 | fewer than 50 cells per well; well left out of scoring | inactive
Nploc4 (GeneID 217365) | -0.65 | 1.51 | 1.58 | enough cells to score | inactive
Iffo2 (GeneID 212632) | 0.21 | 1.62 | 1.82 | enough cells to score | inactive
2410018L13Rik (GeneID 69732) | -0.99 | 1.32 | 1.28 | enough cells to score | inactive
Foxp3 (GeneID 20371) | 0.3 | 1.45 | 1.43 | enough cells to score | inactive
Fbxo21 (GeneID 231670) | -1.27 | 1.36 | 1.2 | enough cells to score | inactive
Lrif1 (GeneID 321000) | 2.83 | 1.64 | 1.93 | enough cells to score | inactive
Camk2b (GeneID 12323) | 0.77 | 1.88 | 1.43 | enough cells to score | inactive
Dynlt4 (GeneID 242646) | – | 1.07 | 1.2 | fewer than 50 cells per well; well left out of scoring | inactive
Galnt4 (GeneID 14426) | -0.69 | 1.6 | 1.27 | enough cells to score | inactive
Tnfsf4 (GeneID 22164) | -0.12 | 1.49 | 1.52 | enough cells to score | inactive
Tshb (GeneID 22094) | 1.41 | 1.61 | 1.89 | enough cells to score | inactive
Rtl8c (GeneID 72865) | – | 1.39 | 1.69 | fewer than 50 cells per well; well left out of scoring | inactive
Gm10413 (GeneID 100041774) | 0.65 | 1.45 | 1.53 | enough cells to score | inactive
Tspan4 (GeneID 64540) | 0.09 | 1.35 | 1.23 | enough cells to score | inactive
Acot5 (GeneID 217698) | -0.03 | 1.57 | 1.84 | enough cells to score | inactive
Isyna1 (GeneID 71780) | 0.29 | 1.69 | 1.38 | enough cells to score | inactive
Marco (GeneID 17167) | -0.41 | 1.43 | 1.25 | enough cells to score | inactive
Poldip2 (GeneID 67811) | – | 1.29 | 1.18 | fewer than 50 cells per well; well left out of scoring | inactive
Gpnmb (GeneID 93695) | – | 1.39 | 1.17 | fewer than 50 cells per well; well left out of scoring | inactive
Or2at1 (GeneID 258353) | – | 1.44 | 1.27 | fewer than 50 cells per well; well left out of scoring | inactive
Nsg1 (GeneID 18196) | -0.68 | 1.55 | 1.48 | enough cells to score | inactive
Clca2 (GeneID 229933) | 0.05 | 1.64 | 1.62 | enough cells to score | inactive
Itpr1 (GeneID 16438) | -1.45 | 1.28 | 1.19 | enough cells to score | inactive
Mpdz (GeneID 17475) | 0.97 | 1.98 | 1.71 | enough cells to score | inactive
Dhx35 (GeneID 71715) | 1.02 | 1.73 | 1.68 | enough cells to score | inactive
Dpm2 (GeneID 13481) | 7.08 | 2.02 | 2.25 | enough cells to score | active
Sorcs2 (GeneID 81840) | 0.48 | 1.51 | 1.74 | enough cells to score | inactive
Hexa (GeneID 15211) | -1.15 | 1.26 | 1.25 | enough cells to score | inactive
Pax9 (GeneID 18511) | 0.06 | 1.42 | 1.45 | enough cells to score | inactive
Fbxo5 (GeneID 67141) | -1.31 | 1.36 | 1.19 | enough cells to score | inactive
1700052K11Rik (GeneID 73431) | – | 1.58 | 1.7 | fewer than 50 cells per well; well left out of scoring | inactive
Abat (GeneID 268860) | -0.46 | 1.51 | 1.58 | enough cells to score | inactive
Rab3gap1 (GeneID 226407) | – | 1.44 | 1.3 | fewer than 50 cells per well; well left out of scoring | inactive
Krt1 (GeneID 16678) | -0.11 | 1.4 | 1.42 | enough cells to score | inactive
Ccdc66 (GeneID 320234) | 1.03 | 1.62 | 1.48 | enough cells to score | inactive
Gprc5a (GeneID 232431) | 0.37 | 1.61 | 1.53 | enough cells to score | inactive
Ptger3 (GeneID 19218) | – | 1.47 | 1.51 | fewer than 50 cells per well; well left out of scoring | inactive

Just “low cell count flag” (5 entries from above):
Rab3gap1 (GeneID 226407) = fewer than 50 cells per well; well left out of scoring
Krt1 (GeneID 16678) = enough cells to score
Ccdc66 (GeneID 320234) = enough cells to score
Gprc5a (GeneID 232431) = enough cells to score
Ptger3 (GeneID 19218) = fewer than 50 cells per well; well left out of scoring
